Among the data in doi:10.1101/2022.10.12.511839 (bioRxiv, 2022) are binding values, retold here.

Protein sequences, listed by entry. Tags and fused reporters are not part of them. Residues count along the entry.
UniProt Q14160, residues 833-965: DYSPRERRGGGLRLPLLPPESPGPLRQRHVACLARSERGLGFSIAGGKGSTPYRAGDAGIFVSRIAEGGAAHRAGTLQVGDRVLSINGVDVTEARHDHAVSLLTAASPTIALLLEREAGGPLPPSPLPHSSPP

These are yes or no findings as the source states them, for the method shown. Some entries that bind do so weakly or less than the wild type.

This assay concerns the target human Scribble PDZ2 domain (833-965) (human) (UniProt Q14160). Briefly: ITC.

On to RTRQRNETQV [HPV51 E6 C-terminal PBM 10-mer peptide (RTRQRNETQV)], for which the binding result is reported as “binds weakly”.
